Laboratory results from the supplement of paper PMC10849652.
The other results are listed elsewhere or left out.

Amino acid sequences for entries named in this document (tags omitted). A change or cut given only in a name is not applied to a line headed by its entry.
UniProt Q9Y2K7: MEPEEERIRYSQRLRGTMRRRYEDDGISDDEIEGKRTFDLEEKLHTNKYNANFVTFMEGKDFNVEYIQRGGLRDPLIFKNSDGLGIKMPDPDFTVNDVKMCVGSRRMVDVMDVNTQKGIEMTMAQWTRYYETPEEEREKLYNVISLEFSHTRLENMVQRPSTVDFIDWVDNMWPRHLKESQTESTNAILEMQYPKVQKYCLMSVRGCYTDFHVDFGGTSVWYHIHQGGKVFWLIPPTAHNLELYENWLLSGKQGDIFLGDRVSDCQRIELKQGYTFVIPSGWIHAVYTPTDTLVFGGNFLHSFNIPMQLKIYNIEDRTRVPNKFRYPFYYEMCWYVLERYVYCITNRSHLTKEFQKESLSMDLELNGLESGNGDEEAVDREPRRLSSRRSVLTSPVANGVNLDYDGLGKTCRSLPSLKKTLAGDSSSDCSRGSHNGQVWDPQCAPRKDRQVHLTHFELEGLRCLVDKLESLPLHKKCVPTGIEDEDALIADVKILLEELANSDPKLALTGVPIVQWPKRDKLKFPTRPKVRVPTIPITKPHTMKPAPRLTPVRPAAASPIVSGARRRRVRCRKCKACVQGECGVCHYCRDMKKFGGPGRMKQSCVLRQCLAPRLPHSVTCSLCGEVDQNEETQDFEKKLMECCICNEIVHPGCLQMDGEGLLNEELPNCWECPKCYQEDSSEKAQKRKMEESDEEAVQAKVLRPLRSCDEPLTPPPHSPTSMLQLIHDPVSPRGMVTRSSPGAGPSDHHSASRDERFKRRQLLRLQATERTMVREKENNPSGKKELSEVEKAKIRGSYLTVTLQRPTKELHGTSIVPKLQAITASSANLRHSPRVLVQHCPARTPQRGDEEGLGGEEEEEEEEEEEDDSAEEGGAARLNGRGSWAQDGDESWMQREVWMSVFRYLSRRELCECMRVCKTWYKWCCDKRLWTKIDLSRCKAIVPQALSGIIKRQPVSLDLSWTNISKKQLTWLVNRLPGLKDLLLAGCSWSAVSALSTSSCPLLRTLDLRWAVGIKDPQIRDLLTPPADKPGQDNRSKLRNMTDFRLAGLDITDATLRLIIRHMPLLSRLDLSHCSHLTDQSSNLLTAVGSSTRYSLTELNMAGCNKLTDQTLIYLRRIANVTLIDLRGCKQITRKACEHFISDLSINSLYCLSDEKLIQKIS
UniProt Q15046, whole entry, looked up: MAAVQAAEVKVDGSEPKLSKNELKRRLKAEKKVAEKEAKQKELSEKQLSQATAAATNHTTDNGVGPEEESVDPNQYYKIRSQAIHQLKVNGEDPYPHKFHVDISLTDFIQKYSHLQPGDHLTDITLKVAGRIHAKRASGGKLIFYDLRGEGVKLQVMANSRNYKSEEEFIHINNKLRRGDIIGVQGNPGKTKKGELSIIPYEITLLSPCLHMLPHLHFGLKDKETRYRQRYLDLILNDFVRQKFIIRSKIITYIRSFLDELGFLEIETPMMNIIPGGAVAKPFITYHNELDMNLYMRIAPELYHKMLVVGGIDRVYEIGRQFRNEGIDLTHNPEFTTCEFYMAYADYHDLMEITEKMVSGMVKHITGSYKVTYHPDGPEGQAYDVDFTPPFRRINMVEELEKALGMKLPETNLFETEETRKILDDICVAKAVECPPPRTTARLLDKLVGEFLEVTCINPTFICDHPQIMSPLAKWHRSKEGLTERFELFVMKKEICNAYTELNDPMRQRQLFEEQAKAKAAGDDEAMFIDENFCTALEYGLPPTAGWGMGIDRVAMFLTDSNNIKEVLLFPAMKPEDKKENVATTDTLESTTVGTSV
UniProt Q9Y496, whole entry, looked up: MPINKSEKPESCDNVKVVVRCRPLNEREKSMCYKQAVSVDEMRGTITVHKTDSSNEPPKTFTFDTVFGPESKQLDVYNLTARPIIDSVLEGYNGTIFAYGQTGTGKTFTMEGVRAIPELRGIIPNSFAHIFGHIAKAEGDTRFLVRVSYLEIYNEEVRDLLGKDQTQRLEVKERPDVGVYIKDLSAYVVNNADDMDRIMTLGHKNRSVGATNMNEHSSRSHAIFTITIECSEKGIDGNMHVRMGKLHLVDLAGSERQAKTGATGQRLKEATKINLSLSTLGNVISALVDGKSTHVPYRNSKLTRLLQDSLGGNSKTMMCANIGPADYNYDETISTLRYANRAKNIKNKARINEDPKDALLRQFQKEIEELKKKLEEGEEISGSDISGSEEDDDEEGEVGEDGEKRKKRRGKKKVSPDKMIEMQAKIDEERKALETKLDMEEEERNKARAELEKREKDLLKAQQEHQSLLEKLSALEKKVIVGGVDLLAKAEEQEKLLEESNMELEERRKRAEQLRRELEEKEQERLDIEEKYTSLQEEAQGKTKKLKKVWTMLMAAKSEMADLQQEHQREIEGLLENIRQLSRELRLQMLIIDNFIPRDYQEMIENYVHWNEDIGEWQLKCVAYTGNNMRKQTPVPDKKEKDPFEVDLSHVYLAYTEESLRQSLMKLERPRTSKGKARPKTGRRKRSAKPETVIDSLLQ
UniProt A8MWY0: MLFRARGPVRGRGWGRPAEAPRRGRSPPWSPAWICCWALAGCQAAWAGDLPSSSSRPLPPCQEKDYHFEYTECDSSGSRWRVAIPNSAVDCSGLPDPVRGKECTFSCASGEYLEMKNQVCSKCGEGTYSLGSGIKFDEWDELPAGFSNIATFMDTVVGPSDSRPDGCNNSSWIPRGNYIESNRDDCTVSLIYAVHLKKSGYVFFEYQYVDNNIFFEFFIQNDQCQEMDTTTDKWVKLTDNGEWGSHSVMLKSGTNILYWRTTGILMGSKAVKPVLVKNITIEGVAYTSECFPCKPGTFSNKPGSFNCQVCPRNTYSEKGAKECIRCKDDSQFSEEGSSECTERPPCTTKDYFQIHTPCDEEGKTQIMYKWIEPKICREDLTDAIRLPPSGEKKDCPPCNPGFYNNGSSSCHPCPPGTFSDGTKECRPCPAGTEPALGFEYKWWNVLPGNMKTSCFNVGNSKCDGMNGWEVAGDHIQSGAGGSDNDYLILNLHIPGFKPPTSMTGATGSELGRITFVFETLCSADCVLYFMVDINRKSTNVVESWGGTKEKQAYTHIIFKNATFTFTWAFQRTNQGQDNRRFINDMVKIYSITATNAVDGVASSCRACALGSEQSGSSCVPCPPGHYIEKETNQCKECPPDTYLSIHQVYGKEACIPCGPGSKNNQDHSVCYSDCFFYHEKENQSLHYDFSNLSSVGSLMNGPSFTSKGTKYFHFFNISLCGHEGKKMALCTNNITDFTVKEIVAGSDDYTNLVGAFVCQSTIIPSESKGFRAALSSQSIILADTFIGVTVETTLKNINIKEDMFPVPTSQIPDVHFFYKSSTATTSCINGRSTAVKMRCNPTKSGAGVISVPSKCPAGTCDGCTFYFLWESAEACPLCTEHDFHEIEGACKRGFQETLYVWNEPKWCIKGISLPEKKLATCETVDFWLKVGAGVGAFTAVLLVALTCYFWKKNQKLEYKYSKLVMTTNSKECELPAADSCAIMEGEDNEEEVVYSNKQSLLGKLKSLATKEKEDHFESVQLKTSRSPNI
UniProt Q8TBB5: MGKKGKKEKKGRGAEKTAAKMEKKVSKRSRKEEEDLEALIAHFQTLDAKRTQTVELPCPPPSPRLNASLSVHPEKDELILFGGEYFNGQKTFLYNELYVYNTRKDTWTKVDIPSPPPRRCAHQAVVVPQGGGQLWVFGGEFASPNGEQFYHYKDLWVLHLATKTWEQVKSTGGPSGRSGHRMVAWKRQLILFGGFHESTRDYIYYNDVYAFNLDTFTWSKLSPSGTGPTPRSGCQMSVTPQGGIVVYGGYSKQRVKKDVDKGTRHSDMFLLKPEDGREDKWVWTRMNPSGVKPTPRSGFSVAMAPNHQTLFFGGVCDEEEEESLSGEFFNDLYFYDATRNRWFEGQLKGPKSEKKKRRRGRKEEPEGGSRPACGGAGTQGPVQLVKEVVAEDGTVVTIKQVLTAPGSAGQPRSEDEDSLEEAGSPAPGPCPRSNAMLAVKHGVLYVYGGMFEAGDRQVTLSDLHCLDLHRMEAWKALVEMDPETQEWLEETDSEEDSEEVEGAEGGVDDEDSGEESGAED
UniProt Q8N6L1: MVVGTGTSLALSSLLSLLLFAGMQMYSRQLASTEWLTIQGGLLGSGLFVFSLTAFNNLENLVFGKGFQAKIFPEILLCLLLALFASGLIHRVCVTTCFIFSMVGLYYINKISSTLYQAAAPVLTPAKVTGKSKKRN
UniProt Q8NFY9: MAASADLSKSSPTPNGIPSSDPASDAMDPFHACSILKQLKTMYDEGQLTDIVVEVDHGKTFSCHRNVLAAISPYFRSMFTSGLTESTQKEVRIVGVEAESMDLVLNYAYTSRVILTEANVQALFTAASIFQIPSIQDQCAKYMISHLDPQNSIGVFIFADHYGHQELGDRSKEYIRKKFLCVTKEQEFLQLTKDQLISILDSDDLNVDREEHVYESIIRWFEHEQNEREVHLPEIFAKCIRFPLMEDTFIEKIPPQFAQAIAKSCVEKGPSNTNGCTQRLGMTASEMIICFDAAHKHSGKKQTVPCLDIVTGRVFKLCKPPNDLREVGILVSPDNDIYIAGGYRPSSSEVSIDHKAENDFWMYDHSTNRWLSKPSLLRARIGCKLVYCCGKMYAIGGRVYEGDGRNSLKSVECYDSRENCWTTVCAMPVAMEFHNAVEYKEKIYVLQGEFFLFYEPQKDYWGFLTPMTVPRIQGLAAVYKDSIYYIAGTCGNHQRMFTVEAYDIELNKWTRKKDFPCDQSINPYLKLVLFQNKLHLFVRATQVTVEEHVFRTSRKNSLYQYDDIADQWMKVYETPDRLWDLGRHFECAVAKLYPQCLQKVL
UniProt Q9Y448: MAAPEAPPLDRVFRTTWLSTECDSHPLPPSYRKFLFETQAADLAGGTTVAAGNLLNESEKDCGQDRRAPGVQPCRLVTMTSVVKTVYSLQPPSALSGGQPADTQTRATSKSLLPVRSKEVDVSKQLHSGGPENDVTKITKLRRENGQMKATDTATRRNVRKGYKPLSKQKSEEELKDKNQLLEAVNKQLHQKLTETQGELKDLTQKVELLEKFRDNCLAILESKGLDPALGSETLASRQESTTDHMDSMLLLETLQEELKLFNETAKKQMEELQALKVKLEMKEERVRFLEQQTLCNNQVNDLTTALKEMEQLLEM
UniProt Q1ED39: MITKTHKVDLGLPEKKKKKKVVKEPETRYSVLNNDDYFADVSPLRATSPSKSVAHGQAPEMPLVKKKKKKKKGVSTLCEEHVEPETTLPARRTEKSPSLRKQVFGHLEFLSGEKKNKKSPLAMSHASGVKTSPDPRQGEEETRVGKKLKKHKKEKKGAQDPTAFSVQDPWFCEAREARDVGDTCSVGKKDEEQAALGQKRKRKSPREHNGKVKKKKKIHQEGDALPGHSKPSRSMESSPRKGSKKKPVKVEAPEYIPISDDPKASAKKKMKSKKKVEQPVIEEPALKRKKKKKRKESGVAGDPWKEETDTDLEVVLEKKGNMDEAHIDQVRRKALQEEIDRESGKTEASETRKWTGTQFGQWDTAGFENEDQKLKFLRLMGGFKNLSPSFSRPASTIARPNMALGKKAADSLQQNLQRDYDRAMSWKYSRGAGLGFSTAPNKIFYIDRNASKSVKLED
UniProt Q96A73: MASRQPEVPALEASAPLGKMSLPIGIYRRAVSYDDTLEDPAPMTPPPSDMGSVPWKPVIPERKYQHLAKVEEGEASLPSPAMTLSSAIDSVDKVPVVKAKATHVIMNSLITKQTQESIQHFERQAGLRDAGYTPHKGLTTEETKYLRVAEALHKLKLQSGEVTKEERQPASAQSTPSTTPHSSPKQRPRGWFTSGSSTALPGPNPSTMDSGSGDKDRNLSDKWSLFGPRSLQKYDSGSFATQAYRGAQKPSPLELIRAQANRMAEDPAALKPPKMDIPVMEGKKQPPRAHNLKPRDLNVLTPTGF
UniProt Q674X7: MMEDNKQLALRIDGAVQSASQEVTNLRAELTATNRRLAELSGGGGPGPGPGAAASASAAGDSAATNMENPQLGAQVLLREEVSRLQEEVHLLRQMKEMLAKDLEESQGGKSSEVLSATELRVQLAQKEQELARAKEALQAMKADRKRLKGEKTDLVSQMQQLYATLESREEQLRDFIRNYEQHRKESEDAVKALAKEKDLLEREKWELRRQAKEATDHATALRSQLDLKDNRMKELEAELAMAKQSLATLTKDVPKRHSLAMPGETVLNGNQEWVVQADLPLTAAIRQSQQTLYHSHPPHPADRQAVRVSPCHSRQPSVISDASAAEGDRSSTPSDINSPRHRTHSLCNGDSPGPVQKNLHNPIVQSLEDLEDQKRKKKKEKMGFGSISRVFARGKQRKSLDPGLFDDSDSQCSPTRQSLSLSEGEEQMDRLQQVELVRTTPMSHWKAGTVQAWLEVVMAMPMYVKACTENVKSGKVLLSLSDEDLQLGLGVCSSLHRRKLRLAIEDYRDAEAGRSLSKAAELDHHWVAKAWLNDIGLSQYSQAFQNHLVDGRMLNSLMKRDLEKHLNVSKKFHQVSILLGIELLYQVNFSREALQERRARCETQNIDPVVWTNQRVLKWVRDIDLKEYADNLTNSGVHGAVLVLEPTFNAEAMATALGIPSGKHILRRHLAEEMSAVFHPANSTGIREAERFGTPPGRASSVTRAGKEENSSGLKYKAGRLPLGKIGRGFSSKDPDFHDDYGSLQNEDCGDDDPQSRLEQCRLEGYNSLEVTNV

Tests used:
Test in all cases: log2 fold change, soluble protein after heating vs DMSO (PISA); higher = thermal stabilisation; K562 cells, 10 uM, 30 min; active = over 0.2 and 3.5 SD of the protein, either way, in both replicates (recomputed)
[1] = compound: C1=CC=C(C=C1)[C@H](COC2=CC3=C(C=C2)NC(=O)N3)NC(=O)C4=CC=CN(C4=O)CC5=CC(=C(C=C5)F)F
In short: (§1)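 K562 cells (2×10^6 cells/mL) were treated with 10 μM compound for 30 min, and aliquots were heated for 3 min over 48°C-58°C. Pooled aliquots were extracted in PBS with 0.5% NP-40 at 4°C, and the supernatant after 21,000xg for 90 min was measured by TMTpro 16plex LC-MS/MS with channel sums equalised. Reported thermal stability, relative to control samples and from duplicates, is a log2 fold change.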

[2] = compound: CC1=C(SC2=C1C(=N[C@H](C3=NN=C(N32)C)CC(=O)N)C4=CC=C(C=C4)Cl)C
In short: as §1

[3] = compound: CC1=C2C(=CC=C1)N=C(N(C2=O)C3=CC=CC=C3C)CN4C=NC5=C(N=CN=C54)N
In short: as §1

[4] = compound: Cc1sc2c(c1C)C(c1ccc(Cl)cc1)=N[C@@H](CC(=O)OC(C)(C)C)c1nnc(C)n1-2
In short: as §1

[5] = compound: c1ccc([C@@H]2C[C@H]2NC2CCNCC2)cc1
In short: as §1

Measured: log2 fold change

KDM2A (UniProt Q9Y2K7)
inactive: [1] -0.028 | [2] -0.015 | [3] -0.039 | [4] -0.059 | [5] -0.025

KARS1 (UniProt Q15046)
inactive: [1] 0.043 | [2] -0.128 | [3] -0.092 | [4] 0.125 | [5] 0.033

KIF3A (UniProt Q9Y496)
inactive: [1] 0.027 | [2] 0.039 | [3] 0.054 | [4] 0.049 | [5] 0.002

KIAA1324L (UniProt A8MWY0)
inactive: [1] 0.041 | [2] 0.044 | [3] 0 | [4] -0.001 | [5] 0.035

KLHDC4 (UniProt Q8TBB5)
inactive: [1] 0.048 | [2] -0.074 | [3] -0.165 | [4] 0.084 | [5] -0.047

KRTCAP2 isoform 2 (UniProt Q8N6L1)
inactive: [1] 0.008 | [2] 0.004 | [3] -0.092 | [4] 0 | [5] 0.07

KDM8 isoform 3 (UniProt Q8N371)
inactive: [1] -0.006 | [2] 0.134 | [3] 0.074 | [4] -0.098 | [5] -0.004

KBTBD8 (UniProt Q8NFY9)
inactive: [1] -0.009 | [2] 0.078 | [3] 0.091 | [4] -0.089 | [5] -0.028

Quoted from the results shown (2 entries):
KIAA1324L (UniProt A8MWY0)
inactive: [1] 0.041 | [2] 0.044 | [3] 0 | [4] -0.001 | [5] 0.035

KLHDC4 (UniProt Q8TBB5)
inactive: [1] 0.048 | [2] -0.074 | [3] -0.165 | [4] 0.084 | [5] -0.047

Next part

KIF5A (UniProt Q12840)
inactive: [1] -0.024 | [2] 0.001 | [3] -0.007 | [4] 0.048 | [5] -0.002

KNSTRN (UniProt Q9Y448)
inactive: [1] 0.013 | [2] -0.061 | [3] -0.017 | [4] 0.049 | [5] 0.006

KNOP1 (UniProt Q1ED39)
inactive: [1] 0.142 | [2] 0.013 | [3] 0.043 | [4] 0.228 | [5] -0.068

KIAA1191 (UniProt Q96A73)
inactive: [1] -0.024 | [2] 0.069 | [3] -0.002 | [4] -0.055 | [5] 0.043

KAZN isoform 3 (UniProt Q674X7)
inactive: [1] 0.02 | [2] 0.016 | [3] 0.083 | [4] 0.007 | [5] 0.058
